The values that follow come from PubChem BioAssay AID743402 (Broad Institute, 2014).

Each structure is given as a SMILES string. The whole screen tested about 1,200 compounds, of which about 140 (12%) were called active.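 Rule for the calls: active = fitted curve falls past -35% activity change at a dose under twice the top valid dose, in every replicate test; inconclusive = replicate tests disagree on the call; inactive = the rest, including activity in the opposite direction.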 This part holds few or none of the hits.

This assay in a line: CFTR-F508del correctors, dose response, FRT cells, YFP quenching, cherry-pick (AID 743402).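 Note: compounds act as correctors raising surface CFTR-F508del before acute activation.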 Particulars: FRT CFTR-F508del YFP iodide quenching, 24 h, channel opened with forskolin and a potentiator; at 26 µM (top of the series) unless noted.
With `C[C@H]1CNC(=O)c2c(C(=O)Nc3ccc(CNC(=O)OC(C)(C)C)cc3)ncn21`, the activity change, negative = more quenching (active) was inactive: 18.8%. The value for `COc1ccc2oc(C(=O)N3CCN(C(=O)c4ccco4)CC3)c(C)c2c1` was inactive: -3.12%; that for `O=C1C=C(NCCc2cc(Br)c(O)c(Br)c2)C(=O)c2ncccc21` was inactive: -7.97%; that for `Cc1ccc(C(=O)OCC(=O)NCc2cc(C)c(O)c(C)c2)cc1S(=O)(=O)N1CCCCC1` was inactive: 13.3%.

For `O=C(/C=C/c1ccco1)NC(=S)Nc1nc(-c2ccc3ccccc3c2)cs1`, the activity change, negative = more quenching (active) is inactive: 3.33%. With `Cc1ccc(-c2cccc(-c3cc(=O)oc4ccc(C(C)(C)C)cc34)c2)cc1`, the activity change, negative = more quenching (active) was inactive: 20%.

Consider `NNC(=O)c1[nH]c2ccc(Cl)cc2c1-c1ccccc1`, for which the activity change, negative = more quenching (active) was inactive: 13.3%. The value for `Clc1ccc(CSc2nncn2-c2ccc3c(c2)OCCO3)cc1` was inactive: 3.33%; that for `O=C1NC(=Nc2cccnc2)S/C1=C/c1ccc(F)cc1` was inactive: 0%; that for `O=C(O)CCCCCCCCc1cn(Cc2ccc(C(=O)c3ccccc3)cc2)nn1` was inactive: 0%.

Consider `NC1(C(=O)O)CC1`, for which the activity change, negative = more quenching (active) is inactive: 0%. The same measure for `COc1ccccc1NC(=O)CSc1ccc(-c2ccccn2)nn1`: inactive: -3.33%; for `COC(=O)Cc1c(O)ccn(Cc2ccc(Cl)c(Cl)c2)c1=O`: inactive: 0%.

In the case of `O=c1[nH]c(/C=C/c2ccccc2F)nc2ccccc12`, the activity change, negative = more quenching (active) is inactive: 9.58%. The value for `CCN1CCCC(OC(=O)c2cc(-c3ccccc3Cl)nc3ccccc23)C1` (stereo not given) was inactive: 6.46%; that for `Nc1ccn([C@H]2C[C@H](O)[C@@H](CO)O2)c(=O)n1` was inactive: 12.9%; that for `CC1=Nc2cc(C(=O)NCC3CCCO3)ccc2Sc2ccc(C)cc21` (stereo not given) was inactive: 6.46%. As for `CN(C)S(=O)(=O)c1ccc2c(c1)/C(=C/c1cc3c([nH]1)CCCC3)C(=O)N2`, the activity change, negative = more quenching (active) was inactive: -7.96%. The same measure for `C[C@@H]1CN([C@H](C)CO)C(=O)c2cc(NC(=O)Cc3cn(C)c4ccccc34)ccc2O[C@@H]1CN(C)Cc1ccc(Cl)c(Cl)c1`: inactive: 12.3% [at 23.5 µM]; for `C=C1C(=O)O[C@@H]2[C@H]1[C@@H](OC(=O)/C(C)=C/C)C/C(C)=C\C(=O)/C=C(\C)[C@@H]2O`: inactive: -3.12%. The value for `O=S1(=O)CCN(C(CO)c2ccccc2)CC1` (stereo not given) was inactive: -1.51%; that for `S=C(NCc1ccco1)NCC1CCCO1` (stereo not given) was inactive: 10%; that for `Cn1c(CC(=O)NN)c(Sc2ccccc2)c2ccccc21` was inactive: 6.67%. The same measure for `Oc1cc2c(cc1O)C(c1ccccc1)CNCC2` (stereo not given): inactive: -4.17%; for `Cc1ccc(-c2nc(CSCC(=O)Nc3cc(C)on3)c(C)o2)cc1`: inactive: 3.33%.
